Source: ChEMBL document CHEMBL3988442, “University of Dundee, Small-Polar-MMV Screening Library” (2021).

Amino acid sequences for entries named in this document (tags omitted). Residues count along the entry.
UniProt P9WPC5, whole entry: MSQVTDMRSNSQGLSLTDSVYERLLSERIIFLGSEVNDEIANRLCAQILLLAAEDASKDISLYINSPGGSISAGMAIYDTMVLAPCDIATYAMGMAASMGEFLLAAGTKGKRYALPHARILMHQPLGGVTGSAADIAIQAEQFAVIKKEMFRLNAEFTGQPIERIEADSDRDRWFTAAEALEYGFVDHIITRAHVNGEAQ
UniProt P9WPC3, whole entry partner: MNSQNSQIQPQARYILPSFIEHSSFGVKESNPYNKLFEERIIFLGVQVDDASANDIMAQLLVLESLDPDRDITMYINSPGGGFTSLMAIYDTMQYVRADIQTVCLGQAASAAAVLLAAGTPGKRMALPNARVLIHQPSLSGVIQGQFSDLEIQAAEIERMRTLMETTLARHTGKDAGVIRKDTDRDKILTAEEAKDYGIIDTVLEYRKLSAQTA
UniProt Q4DA54, 1-478: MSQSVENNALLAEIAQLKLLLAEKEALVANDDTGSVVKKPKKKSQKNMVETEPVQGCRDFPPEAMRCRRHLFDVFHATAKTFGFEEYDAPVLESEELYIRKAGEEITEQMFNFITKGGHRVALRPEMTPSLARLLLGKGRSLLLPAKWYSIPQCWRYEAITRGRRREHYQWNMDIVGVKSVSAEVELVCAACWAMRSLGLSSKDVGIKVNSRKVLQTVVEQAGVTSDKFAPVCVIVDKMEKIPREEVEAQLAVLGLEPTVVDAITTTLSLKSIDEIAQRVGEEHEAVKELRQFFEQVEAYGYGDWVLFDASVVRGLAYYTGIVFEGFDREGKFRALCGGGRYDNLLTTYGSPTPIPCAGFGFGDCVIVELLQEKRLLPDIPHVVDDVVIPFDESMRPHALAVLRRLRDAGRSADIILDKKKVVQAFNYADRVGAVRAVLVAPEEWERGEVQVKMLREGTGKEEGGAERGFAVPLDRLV
UniProt I6X8D2, whole entry: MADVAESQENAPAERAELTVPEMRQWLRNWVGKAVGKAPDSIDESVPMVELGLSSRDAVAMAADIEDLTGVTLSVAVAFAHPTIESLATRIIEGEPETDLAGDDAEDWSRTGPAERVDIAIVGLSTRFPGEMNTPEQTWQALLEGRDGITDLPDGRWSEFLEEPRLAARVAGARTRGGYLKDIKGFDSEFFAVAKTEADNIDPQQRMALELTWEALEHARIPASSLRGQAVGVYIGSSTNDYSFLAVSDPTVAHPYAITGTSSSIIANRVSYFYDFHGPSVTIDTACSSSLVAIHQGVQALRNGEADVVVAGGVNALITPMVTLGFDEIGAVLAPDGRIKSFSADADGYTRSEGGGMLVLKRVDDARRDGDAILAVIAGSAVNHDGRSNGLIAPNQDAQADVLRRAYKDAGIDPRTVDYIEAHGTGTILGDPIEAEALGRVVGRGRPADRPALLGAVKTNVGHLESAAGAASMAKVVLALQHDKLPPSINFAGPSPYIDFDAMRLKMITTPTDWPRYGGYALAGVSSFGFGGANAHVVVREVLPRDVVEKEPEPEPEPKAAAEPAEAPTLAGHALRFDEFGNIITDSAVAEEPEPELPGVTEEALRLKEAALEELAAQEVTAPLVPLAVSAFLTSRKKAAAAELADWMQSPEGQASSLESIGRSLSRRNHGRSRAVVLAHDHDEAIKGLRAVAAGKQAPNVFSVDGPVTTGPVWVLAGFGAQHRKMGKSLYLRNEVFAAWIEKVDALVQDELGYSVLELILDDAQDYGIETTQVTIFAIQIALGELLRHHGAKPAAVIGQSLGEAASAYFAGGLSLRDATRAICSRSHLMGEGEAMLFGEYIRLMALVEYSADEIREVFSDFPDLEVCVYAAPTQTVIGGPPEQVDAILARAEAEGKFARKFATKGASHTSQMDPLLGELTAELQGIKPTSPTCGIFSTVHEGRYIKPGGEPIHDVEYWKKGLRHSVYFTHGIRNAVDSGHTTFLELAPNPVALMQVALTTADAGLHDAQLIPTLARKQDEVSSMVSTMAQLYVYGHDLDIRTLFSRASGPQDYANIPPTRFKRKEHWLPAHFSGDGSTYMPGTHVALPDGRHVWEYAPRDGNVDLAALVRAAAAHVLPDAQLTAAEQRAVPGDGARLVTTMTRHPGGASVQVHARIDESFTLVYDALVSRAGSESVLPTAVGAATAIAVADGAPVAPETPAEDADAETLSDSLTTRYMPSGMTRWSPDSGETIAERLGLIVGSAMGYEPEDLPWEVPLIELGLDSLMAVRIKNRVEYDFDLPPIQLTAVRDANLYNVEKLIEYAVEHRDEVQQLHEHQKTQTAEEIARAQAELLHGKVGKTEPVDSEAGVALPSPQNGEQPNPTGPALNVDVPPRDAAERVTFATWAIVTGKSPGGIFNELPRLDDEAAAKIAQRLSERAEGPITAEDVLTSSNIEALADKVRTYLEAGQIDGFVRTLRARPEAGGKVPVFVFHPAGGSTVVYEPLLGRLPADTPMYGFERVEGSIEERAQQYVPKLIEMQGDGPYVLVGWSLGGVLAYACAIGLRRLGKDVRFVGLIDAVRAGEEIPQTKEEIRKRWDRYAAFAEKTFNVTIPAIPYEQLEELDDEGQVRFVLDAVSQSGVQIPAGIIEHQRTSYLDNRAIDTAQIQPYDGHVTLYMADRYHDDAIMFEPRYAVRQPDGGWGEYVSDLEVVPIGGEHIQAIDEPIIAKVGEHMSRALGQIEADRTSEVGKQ
UniProt Q8IDJ8, 1-583: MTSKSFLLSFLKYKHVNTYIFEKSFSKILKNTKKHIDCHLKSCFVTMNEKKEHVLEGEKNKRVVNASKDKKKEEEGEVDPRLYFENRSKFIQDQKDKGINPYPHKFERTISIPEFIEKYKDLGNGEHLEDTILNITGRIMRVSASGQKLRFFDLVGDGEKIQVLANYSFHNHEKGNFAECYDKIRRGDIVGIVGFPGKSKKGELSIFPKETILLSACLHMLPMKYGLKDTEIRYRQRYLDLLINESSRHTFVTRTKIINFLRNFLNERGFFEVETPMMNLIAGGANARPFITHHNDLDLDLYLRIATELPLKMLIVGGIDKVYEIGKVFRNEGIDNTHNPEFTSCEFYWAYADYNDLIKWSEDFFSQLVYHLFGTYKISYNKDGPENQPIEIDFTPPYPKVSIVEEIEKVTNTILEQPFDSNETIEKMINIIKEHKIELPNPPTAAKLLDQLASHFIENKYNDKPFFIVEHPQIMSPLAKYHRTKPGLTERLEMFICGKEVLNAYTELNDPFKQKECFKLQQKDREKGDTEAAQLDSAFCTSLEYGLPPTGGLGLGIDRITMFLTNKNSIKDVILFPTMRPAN

A: 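ClpP1P2, Mycobacterium tuberculosis (UniProt P9WPC5 and UniProt P9WPC3). Protease assay of ClpP1P2, read by the AMC dye that it sets free. Concentration: 50 µM. Higher reads as stronger inhibition, judged from the few compounds that gave an IC50. Most other retested compounds had strongly negative values. Of about 69,000 compounds tested this way, about 10 (0.015%) reached 50% or more in at least one test.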
B: 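Assay of Toxoplasma gondii numbers, read through their beta-galactosidase reporter with a colour substrate. Tested at 10 µM. The record gives no direction; the compounds picked for IC50 retests had high values, so higher reads as fewer parasites. About 67,000 compounds were tested under these conditions; 0.38% (about 260) showed 50% or more at least once.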
C: 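Enzyme assay of histidyl-tRNA synthetase; the read-out is not stated. Target: Histidine-tRNA ligase, Trypanosoma cruzi CL Brener (UniProt Q4DA54). Compounds at 30 µM. Direction is inferred from retests: higher values go with stronger inhibition. Of about 69,000 compounds tested this way, about 31 (0.045%) reached 50% or more in at least one test.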
D: 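Polyketide synthase Pks13, Mycobacterium tuberculosis (UniProt I6X8D2). Enzyme assay of the thioesterase domain of polyketide synthase 13; the read-out is not stated. Concentration: 30 µM. The record gives no direction; the compounds picked for IC50 retests had high values, so higher reads as stronger inhibition. About 67,000 compounds were tested under these conditions; 0.46% (about 300) showed 50% or more at least once.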
E: 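Lysine-tRNA ligase, Plasmodium falciparum 3D7 (UniProt Q8IDJ8). Enzyme assay of the cytosolic lysyl-tRNA synthetase in 384-well plates, read by luminescence. Compounds at 30 µM. Higher reads as stronger inhibition, judged from the few compounds that gave an IC50. About 69,000 compounds were tested under these conditions; 0.071% (about 49) showed 50% or more at least once.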

Each number is a percent effect as filed.
How 0% and 100% were set is not recorded. Most values in the screen are low, and negative values occur.
The compounds are a random part of those screened.
A dash means the value is not listed here; it may have been measured.

For CNC1CCCN(Cc2noc(C3CC3)n2)C1.Cl (stereo not given) the result was B: -5.54%. With CN(Cc1ccccc1)CC(C)(C)NC(=O)c1cnns1 the screen gave A: -6.115%; B: -3.605%; C: 6.358%; D: -18.63%; E: 1.312%. O=C(NCCC1COc2ccccc2O1)c1ccc(-c2cc[nH]n2)nc1 (stereo not given) gave A: -7.032%; B: -38.98%; C: 7.2%; D: 19.19%; E: 7.343%. Cc1nsc(NC(=O)N2CCCC2C)n1 (stereo not given) read A: -0.3446%; B: -2.552%; C: 8.046%; D: 12.3%; E: 1.443%. Result for CN(Cc1ccccn1)C1COC2(CCN(Cc3cccnc3)CC2)C1 (stereo not given) was A: 16.52%; B: -1.276%; C: 2.732%; D: -36.94%; E: 1.942%. Result for CN1CCC2(CCCN(c3nccc(C(F)(F)F)n3)C2)CC1.O=C(O)C(F)(F)F was B: -32.16%.

CC(C)(O)c1cc(CC2(NCc3ccco3)COC2)no1 gave A: -2.571%; B: 1.934%; C: 2.174%; E: 0.8827%. Result for COCCO[C@H]1CCN(Cc2ccsc2)[C@H]1Cc1cccnc1.O=C(O)C(F)(F)F.O=C(O)C(F)(F)F was B: 13.89%. With CCOCc1ncn2c1CN(S(=O)(=O)c1ccc(F)cc1)CC2 the screen gave A: -6.55%; B: 6.45%; C: 2.97%; D: 24.42%; E: 0.3994%. CC(C)n1cnc(-c2nc(C(=O)NC3CC3)c3ccccn23)c1 gave A: -578.1%; B: -29.53%; C: 2.513%; D: 22.11%; E: 0.9789%. Result for CCS(=O)(=O)N(C)CC(=O)Nc1ccc(Br)cn1 was A: 7.656%; B: 14.08%; C: 0.3774%; D: -17.03%; E: 0.969%. With O=C(CN1CCOC(Cn2cccn2)C1)NCc1ccccn1 (stereo not given) the screen gave A: -25.38%; B: -15.14%; C: 0.5634%; D: -19.79%; E: 0.6122%.

With CC(CNC1CCN(c2ccccn2)CC1)Oc1ccc(F)cc1 (stereo not given) the screen gave A: 13.7%; B: 5.349%; C: 10%; D: -19.96%; E: -3.065%. For O=C(O)C(F)(F)F.O=C(O)C(F)(F)F.[H][C@@]12COC[C@]1(COCc1ccncc1)CN(Cc1cccc(OC)c1)C2 the result was B: -0.8069%. Cc1cccc(C(=O)N2CCN(C(=O)Cc3ccccn3)CC2)c1C read A: -9.084%; B: 3.539%; C: -1.69%; D: -7.631%; E: -0.5584%. CC(C)c1noc(CCCC(=O)N2CCN(S(C)(=O)=O)CC2)n1 gave A: 6.488%; B: -1.691%; C: 5.263%; D: -0.497%; E: -0.3295%. O=S1(=O)NC(C2CCN(Cc3ccccn3)CC2)Nc2ccccc21 (stereo not given) gave A: -3.823%; B: 7.464%; C: 3.745%; D: 3.695%; E: -1.803%. COc1cccc(CNC(C)c2ccc(-n3ccnc3)cc2)c1O (stereo not given) gave A: -3.813%; B: -11.62%; C: 10.98%; D: -11.08%; E: -0.6561%.

[H][C@]12CCCC(N(C)Cc3ccncc3)[C@@]1([H])CN(c1ncccn1)C2 (stereo not given in full) read B: -3.717%. With C/C=C(\C)CN1CCCn2nc(CNC(=O)C3CCC3)cc2C1 the screen gave A: -4.371%; B: -19.63%; C: -1.508%; D: -0.3614%; E: 2.071%. With CC(C)(C)c1coc([C@@H]2COCCN2Cc2cnc3ccccc3c2)n1 the screen gave A: -14.46%; B: -2.95%; C: 2.488%; D: 18.51%; E: 4.607%. Result for Cc1nn(C)c(N(C)C)c1CNCc1nnc2n1CCCCC2.Cl was B: 5.148%. For Cc1nccc(-c2ccccc2)c1C(=O)N1CCC2(CC(=O)NC2=O)C1 (stereo not given) the result was A: -4.09%; B: -1.467%; C: 9.392%; D: -7.106%; E: 1.443%. With Cc1nccc(-c2ccccc2)c1C(=O)N1CC[C@](C)(O)[C@H](C)C1 the screen gave A: -3.77%; B: 11.89%; C: -0.5525%; D: 4.213%; E: -5.06%.

Result for CN(Cc1ccc(C#N)cc1)C(=O)c1ccn(C)c(=O)c1 was A: 2.687%; B: -13.27%; C: 0.8929%; D: -15.01%; E: 1.508%. Result for O=C(c1cccs1)N1CCC[C@]2(C[C@@H](OCc3ccncc3)CO2)C1 was A: -26.26%; C: 4.478%; D: -1.919%; E: 6.557%. For CC(c1ccc(F)cc1F)N1CCN(Cc2nccn2C)CC1 (stereo not given) the result was A: -17.46%; B: -17.99%; C: 5.764%; D: -0.8581%; E: -0.5905%. With CN1CCc2onc(CNc3ncccn3)c2C1.O=C(O)C(F)(F)F.O=C(O)C(F)(F)F the screen gave B: 1.282%. Cc1ccc2c(c1)CCC2NCc1c(C)nn(C)c1N1CCOCC1.Cl (stereo not given) read B: -41.01%.

4 of the entries, repeated:

| compound | A | B | C | D | E |
|---|---|---|---|---|---|
| `CC(C)(O)c1cc(CC2(NCc3ccco3)COC2)no1` | -2.571 | 1.934 | 2.174 | - | 0.8827 |
| `CC(CNC1CCN(c2ccccn2)CC1)Oc1ccc(F)cc1` (stereo not given) | 13.7 | 5.349 | 10 | -19.96 | -3.065 |
| `O=S1(=O)NC(C2CCN(Cc3ccccn3)CC2)Nc2ccccc21` (stereo not given) | -3.823 | 7.464 | 3.745 | 3.695 | -1.803 |
| `Cc1nccc(-c2ccccc2)c1C(=O)N1CC[C@](C)(O)[C@H](C)C1` | -3.77 | 11.89 | -0.5525 | 4.213 | -5.06 |